Assay: Odor description (olfactory evaluation)

## CCCCCCC/C=C/C(C)CC=O (centres unmarked) [(E)-3-methyl-4-dodecenal]
  Odor description: aldehydic, citrus-related, slightly carrot

## CCCCCCC/C=C(\C)CCC=O [(E)-4-methyl-4-dodecenal, (E)-4-Methyl-4-dodecenal]
  Odor description: aldehydic, orange, mandarin, slightly woody

Source: patent US8399399B2, “3- and 4-methyl dodecenal and their use in fragrance and flavour compositions” (Givaudan SA, priority 2005, dated 2013)
